# From the supplement of paper PMC6411743
# Chains of the proteins cited; added tags and fusions are not shown. Lines headed by an entry give the natural chain unless they say otherwise; changes in a name come on top.
# UniProt P29558: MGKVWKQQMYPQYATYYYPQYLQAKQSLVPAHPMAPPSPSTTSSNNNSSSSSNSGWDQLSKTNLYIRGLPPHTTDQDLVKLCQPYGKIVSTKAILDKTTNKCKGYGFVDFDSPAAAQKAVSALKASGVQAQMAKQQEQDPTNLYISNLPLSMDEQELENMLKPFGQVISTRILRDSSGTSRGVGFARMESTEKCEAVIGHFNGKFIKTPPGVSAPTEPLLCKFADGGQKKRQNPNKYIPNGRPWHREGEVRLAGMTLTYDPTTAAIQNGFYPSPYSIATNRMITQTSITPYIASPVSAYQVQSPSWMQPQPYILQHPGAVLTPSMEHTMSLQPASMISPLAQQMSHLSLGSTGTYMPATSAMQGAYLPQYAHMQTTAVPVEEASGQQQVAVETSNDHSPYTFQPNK
# UniProt Q15843, whole entry: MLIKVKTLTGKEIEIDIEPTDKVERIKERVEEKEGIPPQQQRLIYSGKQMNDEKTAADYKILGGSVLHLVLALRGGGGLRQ
# UniProt P09496: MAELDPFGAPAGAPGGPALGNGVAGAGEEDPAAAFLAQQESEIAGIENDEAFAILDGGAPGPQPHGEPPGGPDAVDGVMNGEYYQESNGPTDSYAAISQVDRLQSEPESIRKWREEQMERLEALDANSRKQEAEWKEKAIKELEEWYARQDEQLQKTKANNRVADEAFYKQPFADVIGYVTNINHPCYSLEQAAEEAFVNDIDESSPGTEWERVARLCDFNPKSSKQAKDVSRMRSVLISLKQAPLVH
# UniProt O75581: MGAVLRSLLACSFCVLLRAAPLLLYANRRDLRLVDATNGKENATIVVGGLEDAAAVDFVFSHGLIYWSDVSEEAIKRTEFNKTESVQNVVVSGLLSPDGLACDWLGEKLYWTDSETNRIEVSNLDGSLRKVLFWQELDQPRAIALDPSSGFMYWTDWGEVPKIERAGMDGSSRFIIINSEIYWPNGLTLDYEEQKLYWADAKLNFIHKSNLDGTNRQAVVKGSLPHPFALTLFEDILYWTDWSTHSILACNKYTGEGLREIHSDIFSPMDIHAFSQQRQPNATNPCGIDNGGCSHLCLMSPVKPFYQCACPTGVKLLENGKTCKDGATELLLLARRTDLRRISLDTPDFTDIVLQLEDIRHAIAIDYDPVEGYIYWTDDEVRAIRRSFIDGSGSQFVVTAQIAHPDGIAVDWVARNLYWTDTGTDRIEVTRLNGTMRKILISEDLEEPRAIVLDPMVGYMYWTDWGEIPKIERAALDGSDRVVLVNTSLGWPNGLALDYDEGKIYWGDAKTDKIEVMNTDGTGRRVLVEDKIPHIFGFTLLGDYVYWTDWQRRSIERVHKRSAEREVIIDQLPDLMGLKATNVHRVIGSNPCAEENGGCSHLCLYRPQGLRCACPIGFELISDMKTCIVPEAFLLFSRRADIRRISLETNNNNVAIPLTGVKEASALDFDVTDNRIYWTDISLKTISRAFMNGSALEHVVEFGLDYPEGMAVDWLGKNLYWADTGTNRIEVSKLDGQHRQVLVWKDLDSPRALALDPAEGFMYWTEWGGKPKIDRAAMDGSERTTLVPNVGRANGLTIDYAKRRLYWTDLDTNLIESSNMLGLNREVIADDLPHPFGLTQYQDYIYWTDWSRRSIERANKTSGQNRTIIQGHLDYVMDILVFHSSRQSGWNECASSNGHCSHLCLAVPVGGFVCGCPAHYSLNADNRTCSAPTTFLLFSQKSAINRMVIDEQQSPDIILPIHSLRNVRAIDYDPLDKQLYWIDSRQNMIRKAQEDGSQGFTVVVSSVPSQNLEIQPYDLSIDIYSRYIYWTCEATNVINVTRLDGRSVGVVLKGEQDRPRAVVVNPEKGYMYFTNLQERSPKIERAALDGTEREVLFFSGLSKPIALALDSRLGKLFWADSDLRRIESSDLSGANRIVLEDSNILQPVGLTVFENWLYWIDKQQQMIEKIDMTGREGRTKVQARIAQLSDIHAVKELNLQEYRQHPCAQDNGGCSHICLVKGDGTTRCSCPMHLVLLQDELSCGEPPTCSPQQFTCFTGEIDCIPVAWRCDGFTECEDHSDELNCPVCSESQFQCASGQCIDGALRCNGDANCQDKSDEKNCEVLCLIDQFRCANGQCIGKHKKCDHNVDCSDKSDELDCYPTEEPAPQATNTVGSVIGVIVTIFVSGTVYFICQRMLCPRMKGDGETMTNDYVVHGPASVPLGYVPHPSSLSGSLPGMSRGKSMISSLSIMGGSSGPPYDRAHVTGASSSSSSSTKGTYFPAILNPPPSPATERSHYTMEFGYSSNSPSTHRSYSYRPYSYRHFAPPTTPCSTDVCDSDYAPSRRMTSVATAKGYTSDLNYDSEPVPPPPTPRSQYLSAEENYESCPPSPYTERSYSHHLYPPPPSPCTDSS
# UniProt Q9H9L4: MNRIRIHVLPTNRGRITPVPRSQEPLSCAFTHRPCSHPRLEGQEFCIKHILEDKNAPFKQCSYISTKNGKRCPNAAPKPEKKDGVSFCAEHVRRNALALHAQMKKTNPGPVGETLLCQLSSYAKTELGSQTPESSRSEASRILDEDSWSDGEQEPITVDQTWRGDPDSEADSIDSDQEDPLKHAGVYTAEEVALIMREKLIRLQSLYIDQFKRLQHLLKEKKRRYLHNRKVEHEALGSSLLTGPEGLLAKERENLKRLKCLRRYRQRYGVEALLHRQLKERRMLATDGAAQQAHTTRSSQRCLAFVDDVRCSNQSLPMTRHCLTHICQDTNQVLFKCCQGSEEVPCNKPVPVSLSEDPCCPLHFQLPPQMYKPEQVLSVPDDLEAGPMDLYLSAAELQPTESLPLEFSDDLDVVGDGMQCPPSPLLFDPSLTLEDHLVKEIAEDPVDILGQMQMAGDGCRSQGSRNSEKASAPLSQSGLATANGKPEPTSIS
# UniProt Q6NWY9: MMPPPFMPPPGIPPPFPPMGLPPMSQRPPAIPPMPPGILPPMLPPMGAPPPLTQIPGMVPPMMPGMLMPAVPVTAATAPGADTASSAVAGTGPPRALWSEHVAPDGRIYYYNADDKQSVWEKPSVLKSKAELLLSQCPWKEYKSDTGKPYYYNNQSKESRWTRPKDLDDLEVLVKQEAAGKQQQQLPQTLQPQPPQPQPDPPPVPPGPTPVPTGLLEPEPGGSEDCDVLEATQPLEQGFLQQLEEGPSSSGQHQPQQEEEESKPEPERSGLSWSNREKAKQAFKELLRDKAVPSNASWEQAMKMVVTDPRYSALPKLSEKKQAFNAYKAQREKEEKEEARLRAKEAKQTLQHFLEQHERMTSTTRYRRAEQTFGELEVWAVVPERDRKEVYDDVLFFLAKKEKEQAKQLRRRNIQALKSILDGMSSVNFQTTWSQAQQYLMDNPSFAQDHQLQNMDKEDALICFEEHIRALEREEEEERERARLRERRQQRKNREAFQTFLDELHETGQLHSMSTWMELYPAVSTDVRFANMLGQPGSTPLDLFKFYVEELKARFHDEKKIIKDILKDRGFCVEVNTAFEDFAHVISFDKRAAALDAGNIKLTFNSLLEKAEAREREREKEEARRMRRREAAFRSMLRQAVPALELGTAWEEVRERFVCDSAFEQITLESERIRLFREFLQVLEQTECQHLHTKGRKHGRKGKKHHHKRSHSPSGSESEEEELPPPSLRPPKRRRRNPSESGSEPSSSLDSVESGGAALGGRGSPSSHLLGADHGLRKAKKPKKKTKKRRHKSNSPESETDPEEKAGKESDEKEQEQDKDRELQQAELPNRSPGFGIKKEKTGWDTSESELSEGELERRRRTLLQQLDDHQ
# UniProt Q9UIF9: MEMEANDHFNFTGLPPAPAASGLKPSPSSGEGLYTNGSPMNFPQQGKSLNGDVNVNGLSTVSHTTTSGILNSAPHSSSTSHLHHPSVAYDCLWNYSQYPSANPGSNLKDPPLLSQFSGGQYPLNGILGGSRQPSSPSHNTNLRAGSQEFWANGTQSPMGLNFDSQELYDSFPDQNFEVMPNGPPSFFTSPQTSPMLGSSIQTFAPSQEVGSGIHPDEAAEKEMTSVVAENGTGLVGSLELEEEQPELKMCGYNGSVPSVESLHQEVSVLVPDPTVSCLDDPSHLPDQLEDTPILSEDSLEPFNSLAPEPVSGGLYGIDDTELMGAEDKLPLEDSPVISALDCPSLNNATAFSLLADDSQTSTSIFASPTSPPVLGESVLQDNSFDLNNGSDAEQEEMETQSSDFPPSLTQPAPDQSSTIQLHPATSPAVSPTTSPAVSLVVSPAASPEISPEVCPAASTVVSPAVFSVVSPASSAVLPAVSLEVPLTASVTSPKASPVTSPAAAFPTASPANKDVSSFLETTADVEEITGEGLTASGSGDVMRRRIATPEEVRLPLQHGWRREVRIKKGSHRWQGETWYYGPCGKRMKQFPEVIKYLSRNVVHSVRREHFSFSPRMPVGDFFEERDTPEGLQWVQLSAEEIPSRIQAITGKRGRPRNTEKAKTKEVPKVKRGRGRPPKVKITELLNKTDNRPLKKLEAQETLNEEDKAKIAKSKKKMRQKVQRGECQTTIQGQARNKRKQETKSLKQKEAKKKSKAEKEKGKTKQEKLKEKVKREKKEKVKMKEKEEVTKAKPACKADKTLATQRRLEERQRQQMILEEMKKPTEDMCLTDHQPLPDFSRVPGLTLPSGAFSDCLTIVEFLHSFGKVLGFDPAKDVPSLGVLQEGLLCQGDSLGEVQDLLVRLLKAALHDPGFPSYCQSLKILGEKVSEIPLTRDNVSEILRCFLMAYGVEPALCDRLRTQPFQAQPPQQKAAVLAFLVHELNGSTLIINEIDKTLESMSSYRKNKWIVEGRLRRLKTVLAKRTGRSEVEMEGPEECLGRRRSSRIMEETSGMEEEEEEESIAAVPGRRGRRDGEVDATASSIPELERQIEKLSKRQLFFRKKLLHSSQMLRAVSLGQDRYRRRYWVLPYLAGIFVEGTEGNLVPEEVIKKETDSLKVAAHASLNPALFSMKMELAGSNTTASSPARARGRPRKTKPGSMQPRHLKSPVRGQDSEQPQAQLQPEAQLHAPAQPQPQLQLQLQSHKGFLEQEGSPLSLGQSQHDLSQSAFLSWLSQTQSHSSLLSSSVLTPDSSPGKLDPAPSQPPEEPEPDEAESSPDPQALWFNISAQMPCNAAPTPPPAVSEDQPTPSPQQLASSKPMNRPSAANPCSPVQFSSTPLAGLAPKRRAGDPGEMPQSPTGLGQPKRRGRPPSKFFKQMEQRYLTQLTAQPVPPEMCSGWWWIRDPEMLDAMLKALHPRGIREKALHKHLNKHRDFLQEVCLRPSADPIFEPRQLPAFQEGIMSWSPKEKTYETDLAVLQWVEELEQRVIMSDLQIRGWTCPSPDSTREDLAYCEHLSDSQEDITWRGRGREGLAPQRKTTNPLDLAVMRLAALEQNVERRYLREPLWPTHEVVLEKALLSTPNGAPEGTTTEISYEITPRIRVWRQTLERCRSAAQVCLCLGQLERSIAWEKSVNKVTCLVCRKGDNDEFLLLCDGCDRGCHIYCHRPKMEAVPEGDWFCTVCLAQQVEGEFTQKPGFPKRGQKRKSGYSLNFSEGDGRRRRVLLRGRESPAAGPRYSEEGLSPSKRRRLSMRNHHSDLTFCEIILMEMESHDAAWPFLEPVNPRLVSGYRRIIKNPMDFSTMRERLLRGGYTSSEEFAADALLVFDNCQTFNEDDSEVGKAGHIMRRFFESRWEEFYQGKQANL
# UniProt O14683: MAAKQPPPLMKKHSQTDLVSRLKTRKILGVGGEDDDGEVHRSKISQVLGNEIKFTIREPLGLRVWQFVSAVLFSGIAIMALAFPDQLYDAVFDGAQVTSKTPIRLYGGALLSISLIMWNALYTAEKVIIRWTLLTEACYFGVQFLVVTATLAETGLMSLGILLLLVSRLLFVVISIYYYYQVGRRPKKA
# UniProt P56202: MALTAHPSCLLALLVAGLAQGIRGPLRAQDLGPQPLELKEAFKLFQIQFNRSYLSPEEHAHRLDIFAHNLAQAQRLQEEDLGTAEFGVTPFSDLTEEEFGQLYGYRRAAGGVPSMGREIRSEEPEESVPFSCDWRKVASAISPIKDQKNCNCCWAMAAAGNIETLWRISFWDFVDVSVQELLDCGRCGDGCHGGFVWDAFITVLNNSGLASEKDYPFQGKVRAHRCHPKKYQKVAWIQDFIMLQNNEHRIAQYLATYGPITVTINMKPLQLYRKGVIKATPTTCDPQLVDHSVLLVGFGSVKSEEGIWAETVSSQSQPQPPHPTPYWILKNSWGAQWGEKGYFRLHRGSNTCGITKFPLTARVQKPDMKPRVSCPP
# UniProt Q9Y315: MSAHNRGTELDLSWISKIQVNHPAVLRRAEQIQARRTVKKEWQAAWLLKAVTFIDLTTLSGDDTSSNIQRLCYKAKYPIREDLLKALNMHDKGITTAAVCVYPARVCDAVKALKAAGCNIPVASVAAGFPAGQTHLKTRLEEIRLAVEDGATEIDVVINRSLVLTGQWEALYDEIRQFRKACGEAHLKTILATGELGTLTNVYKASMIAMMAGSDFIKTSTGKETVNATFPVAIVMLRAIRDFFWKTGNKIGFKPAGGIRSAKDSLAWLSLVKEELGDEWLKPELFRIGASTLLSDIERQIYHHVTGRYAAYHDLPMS
# ± gives the standard deviation of the averaged measurements. The list shows a part of the results, in another mix than the full data. Most entries show no effect beyond the scatter of the controls.
# Compound: Nc1ncnc2c1ncn2[C@@H]1O[C@H](COP(=O)(O)OP(=O)(O)NP(=O)(O)O)[C@@H](O)[C@H]1O [adenylyl imidodiphosphate]
# Assay: NP40-soluble protein abundance relative to vehicle (solubility fold change) (ratio); higher = more soluble protein in presence of AMP-PNP
# Outline: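 Data come from three independent experiments in which Dounce-homogenised Jurkat crude lysate was treated at eight concentrations from 0.1 to 10 mM. Treatment ran 10 min at room temperature and then 3 min at 37 °C, after which 0.8% NP40 and benzonase were added for 60 min at 4 °C before ultracentrifugation. The supernatant underwent TMT labelling and LC-MS/MS, and vsn-normalised intensities were expressed as fold change against the detergent-processed vehicle in each replicate.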
Target,NP40-soluble protein abundance (concentration: 0.1mM),NP40-soluble protein abundance (concentration: 0.5mM)
F2Z388 and related entries (UniProt P42766),1.017 ± 0.0072,1.04 ± 0.035
E9PIN3 and related entries (UniProt Q9UBU9),0.987 ± 0.017,1.01 ± 0.034
F6TLX2 and related entries (UniProt Q9HC38),0.979 ± 0.015,0.984 ± 0.031
E9PBL8 and related entries (UniProt Q8WTW3),1.103 ± 0.0046,0.9766 ± 0.0057
F2Z2X0 and related entries (UniProt O00746),1.06 ± 0.028,1.07 ± 0.019
F6VUX8 and related entries (UniProt Q9HC77),1.009 ± 0.0092,1.03 ± 0.015
E9PPN1 and related entries (UniProt Q8WW01),0.994 ± 0.025,0.985 ± 0.025
F8W060 and related entries (UniProt Q9BZF1),0.974 ± 0.024,0.988 ± 0.011
E7ERS3 and related entries (UniProt Q86VM9),0.987 ± 0.031,1.03 ± 0.046
E5RJF8 and related entries (UniProt O15182),0.999 ± 0.03,1.03 ± 0.011
E7ETA6 and related entries (UniProt Q15154),1 ± 0.05,1.01 ± 0.066
F5H101 and related entries (UniProt Q76FK4),1.01 ± 0.023,1.03 ± 0.029
E7EMB1 and related entries (UniProt Q9UH65),0.97 ± 0.021,1.01 ± 0.04
F8WEA6 and related entries (UniProt O75439),0.99 ± 0.028,1.02 ± 0.026
F8WCF6 and related entries (UniProt P59998),1.02 ± 0.024,0.985 ± 0.1
E7ETU5 and related entries (UniProt P29558),0.957 ± 0.018,0.981 ± 0.016
E7ETB3 and related entries (UniProt Q9ULA0),1.01 ± 0.04,0.978 ± 0.027
E9PL57 and related entries (UniProt Q15843),0.934 ± 0.053,0.959 ± 0.011
F8WCF9 and related entries (UniProt Q8N465),1.014 ± 0.0029,1.04 ± 0.036
F5GWT4 and related entries (UniProt Q9H4A3),1.01 ± 0.036,1.02 ± 0.051
F8WB06 and related entries (UniProt Q99700),0.974 ± 0.029,1.03 ± 0.043
E7ESH4 and related entries (UniProt P10809),0.967 ± 0.055,0.993 ± 0.071
E9PIE4 and related entries (UniProt Q9Y6C9),1.02 ± 0.056,0.997 ± 0.09
F5GXC5 and related entries (UniProt Q8TB96),1.01 ± 0.011,1.01 ± 0.0092
E7ESL0 and related entries (UniProt Q9NWU5),1.07 ± 0.079,1 ± 0.074
F8W057 and related entries (UniProt Q9GZN1),1.01 ± 0.029,1 ± 0.031

Target,NP40-soluble protein abundance (concentration: 0.1mM),NP40-soluble protein abundance (concentration: 0.5mM)
F8WF69 and related entries (UniProt P09496),0.96 ± 0.039,0.9354 ± 0.0072
E7EW05 and related entries (UniProt Q9NVU7),0.965 ± 0.02,0.981 ± 0.038
E5RIW3 and related entries (UniProt O75347),1.027 ± 0.0075,1.05 ± 0.062
F8W9W2 and related entries (UniProt P43250),1.01 ± 0.017,1.06 ± 0.028
E9PK67 and related entries (UniProt Q53GL7),1.02 ± 0.02,1 ± 0.014
F5H7J9 and related entries (UniProt O75581),0.981 ± 0.031,1.01 ± 0.049
F8VV56 and related entries (UniProt P08962),0.957 ± 0.032,0.98 ± 0.04
G3V3G9 (UniProt P40855),0.9885 ± 0.0094,0.975 ± 0.04
F6V2D4 and related entries (UniProt O00214),1.01 ± 0.027,0.999 ± 0.041
F5H0F9 and related entries (UniProt Q9UJX4),1.02 ± 0.035,1.02 ± 0.074
E7EXA6 and related entries (UniProt Q8WVB6),1.01 ± 0.019,0.989 ± 0.023
F5GX51 and related entries (UniProt Q9Y4F9),0.964 ± 0.015,0.985 ± 0.02
F5GWN5 and related entries (UniProt O00750),0.994 ± 0.018,0.979 ± 0.025
E9PHV5 and related entries (UniProt P28290),0.968 ± 0.042,1.01 ± 0.025
F8WEW6 and related entries (UniProt O76064),0.928 ± 0.017,0.993 ± 0.012
E9PBS1 and related entries (UniProt P22234),1.01 ± 0.014,1.01 ± 0.031
F6T1Q0 and related entries (UniProt Q6L8Q7),1 ± 0.057,0.957 ± 0.079
E9PNT2 (UniProt Q6ZUM4),1.02 ± 0.018,0.997 ± 0.026
E9PG19 and related entries (UniProt O94868),0.984 ± 0.01,0.983 ± 0.03
E9PKC0 and related entries (UniProt Q6IQ23),1.02 ± 0.028,0.994 ± 0.043
F2Z2W7 and related entries (UniProt Q8IZ69),1.036 ± 0.0024,1.01 ± 0.043
E9PJE9 and related entries (UniProt P78410),1 ± 0.034,0.983 ± 0.04
F5H4V9 and related entries (UniProt Q16342),0.9655 ± 0.0046,0.988 ± 0.033
F8VX10 and related entries (UniProt Q9H9L4),0.993 ± 0.021,0.999 ± 0.04
E9PRY8 and related entries (UniProt P29692),1.02 ± 0.034,0.993 ± 0.053
F5GZ82 and related entries (UniProt Q9NP50),0.973 ± 0.018,0.954 ± 0.051

Target,NP40-soluble protein abundance (concentration: 0.1mM),NP40-soluble protein abundance (concentration: 0.5mM)
F8W809 and related entries (UniProt Q16881),0.988 ± 0.013,1.01 ± 0.029
E7EPM6 and related entries (UniProt P33121),0.986 ± 0.02,0.948 ± 0.053
E9PJJ5 and related entries (UniProt Q4G0X4),1.041 ± 0.0086,0.996 ± 0.014
E5RJ40 and related entries (UniProt Q15043),1.011 ± 0.0026,1.002 ± 0.0058
E9PLL6 and related entries (UniProt P46776),1.05 ± 0.046,1 ± 0.041
F8VU11 and related entries (UniProt Q6NWY9),0.98482 ± 0.00015,0.979 ± 0.033
E7EQI7 and related entries (UniProt Q12768),1.01 ± 0.05,0.993 ± 0.041
F6TB26 and related entries (UniProt Q9Y2W6),0.968 ± 0.027,0.963 ± 0.037
E9PK26 and related entries (UniProt Q9NRS6),1.01 ± 0.023,0.982 ± 0.043
F5GWU8 and related entries (UniProt P61224),0.964 ± 0.013,1.02 ± 0.054
F8W8W7 and related entries (UniProt O43493),0.992 ± 0.025,1.02 ± 0.013
E7EQ34 and related entries (UniProt O14653+E7EQ34),0.964 ± 0.023,1.01 ± 0.018
F8VU39 and related entries (UniProt Q9UIF9),0.994 ± 0.035,1 ± 0.037
E9PSH8 and related entries (UniProt P07766),0.9927 ± 0.0038,1.03 ± 0.029
E9PJD7 and related entries (UniProt P0DTL6),0.99 ± 0.025,0.9892 ± 0.0024
F5GXB1 and related entries (UniProt Q9HBH0),1.02 ± 0.028,1.02 ± 0.021
E9PLK3 and related entries (UniProt P55786),1.03 ± 0.021,0.972 ± 0.09
E9PIK4 and related entries (UniProt O14683),0.973 ± 0.022,0.963 ± 0.019
E7EMP6 and related entries (UniProt Q96FZ2),1.01 ± 0.0055,0.9829 ± 0.0094
E9PI30 and related entries (UniProt P56202),0.943 ± 0.015,0.964 ± 0.019
E9PG15 and related entries (UniProt P27348),1 ± 0.069,1.03 ± 0.078
E9PJB9 and related entries (UniProt Q9Y315),0.982 ± 0.039,1.01 ± 0.066
E9PLV1 and related entries (UniProt Q9NQV6),1.02 ± 0.012,1.01 ± 0.012
F5H226 and related entries (UniProt P08397),1.02 ± 0.028,0.9918 ± 0.0047
F8WC89 (UniProt A6NKF1),0.919 ± 0.063,0.927 ± 0.1

# Quoted from the listing for reference:
Target,NP40-soluble protein abundance (concentration: 0.1mM),NP40-soluble protein abundance (concentration: 0.5mM)
E7EPM6 and related entries (UniProt P33121),0.986 ± 0.02,0.948 ± 0.053
E9PJJ5 and related entries (UniProt Q4G0X4),1.041 ± 0.0086,0.996 ± 0.014
E5RJ40 and related entries (UniProt Q15043),1.011 ± 0.0026,1.002 ± 0.0058
E9PLL6 and related entries (UniProt P46776),1.05 ± 0.046,1 ± 0.041
